ChEMBL document CHEMBL1144408, “Novel atypical antipsychotic agents: rational design, an efficient palladium-catalyzed route, and pharmacological studies” (J Med Chem, 2005)

How the values were obtained:
Assay type in all cases: functional
Rattus norvegicus [1] = assay: In vivo effective dose against catalepsy response was determined in rats
Rattus norvegicus [2] = assay: In vivo effective dose against 5-MeO-DMT-induced head twitches in rats was determined
Rattus norvegicus [3] = assay: In vivo effective dose of compound against 5-MeO-DMT induced head twitches in rats

Q: For `Cc1cc2c(s1)Nc1ccccc1N=C2N1CCN(C)CC1` [OLANZAPINE], which ED50 (Rattus norvegicus [1]) is on record?
A: Its ED50 is 21.2 µmol/kg.

Q: What about the ED50 (Rattus norvegicus [2]) of the same molecule?
A: Its ED50 is 4.65 µmol/kg.

Q: And the ED50 (Rattus norvegicus [3])?
A: Its ED50 is 1.45 mg/kg.
